# Experimental data: PubChem BioAssay AID2073 (Sanford-Burnham Center for Chemical Genomics, 2009)
# Chains of the proteins cited; added tags and fusions are not shown.
# UniProt Q00975, whole entry, looked up: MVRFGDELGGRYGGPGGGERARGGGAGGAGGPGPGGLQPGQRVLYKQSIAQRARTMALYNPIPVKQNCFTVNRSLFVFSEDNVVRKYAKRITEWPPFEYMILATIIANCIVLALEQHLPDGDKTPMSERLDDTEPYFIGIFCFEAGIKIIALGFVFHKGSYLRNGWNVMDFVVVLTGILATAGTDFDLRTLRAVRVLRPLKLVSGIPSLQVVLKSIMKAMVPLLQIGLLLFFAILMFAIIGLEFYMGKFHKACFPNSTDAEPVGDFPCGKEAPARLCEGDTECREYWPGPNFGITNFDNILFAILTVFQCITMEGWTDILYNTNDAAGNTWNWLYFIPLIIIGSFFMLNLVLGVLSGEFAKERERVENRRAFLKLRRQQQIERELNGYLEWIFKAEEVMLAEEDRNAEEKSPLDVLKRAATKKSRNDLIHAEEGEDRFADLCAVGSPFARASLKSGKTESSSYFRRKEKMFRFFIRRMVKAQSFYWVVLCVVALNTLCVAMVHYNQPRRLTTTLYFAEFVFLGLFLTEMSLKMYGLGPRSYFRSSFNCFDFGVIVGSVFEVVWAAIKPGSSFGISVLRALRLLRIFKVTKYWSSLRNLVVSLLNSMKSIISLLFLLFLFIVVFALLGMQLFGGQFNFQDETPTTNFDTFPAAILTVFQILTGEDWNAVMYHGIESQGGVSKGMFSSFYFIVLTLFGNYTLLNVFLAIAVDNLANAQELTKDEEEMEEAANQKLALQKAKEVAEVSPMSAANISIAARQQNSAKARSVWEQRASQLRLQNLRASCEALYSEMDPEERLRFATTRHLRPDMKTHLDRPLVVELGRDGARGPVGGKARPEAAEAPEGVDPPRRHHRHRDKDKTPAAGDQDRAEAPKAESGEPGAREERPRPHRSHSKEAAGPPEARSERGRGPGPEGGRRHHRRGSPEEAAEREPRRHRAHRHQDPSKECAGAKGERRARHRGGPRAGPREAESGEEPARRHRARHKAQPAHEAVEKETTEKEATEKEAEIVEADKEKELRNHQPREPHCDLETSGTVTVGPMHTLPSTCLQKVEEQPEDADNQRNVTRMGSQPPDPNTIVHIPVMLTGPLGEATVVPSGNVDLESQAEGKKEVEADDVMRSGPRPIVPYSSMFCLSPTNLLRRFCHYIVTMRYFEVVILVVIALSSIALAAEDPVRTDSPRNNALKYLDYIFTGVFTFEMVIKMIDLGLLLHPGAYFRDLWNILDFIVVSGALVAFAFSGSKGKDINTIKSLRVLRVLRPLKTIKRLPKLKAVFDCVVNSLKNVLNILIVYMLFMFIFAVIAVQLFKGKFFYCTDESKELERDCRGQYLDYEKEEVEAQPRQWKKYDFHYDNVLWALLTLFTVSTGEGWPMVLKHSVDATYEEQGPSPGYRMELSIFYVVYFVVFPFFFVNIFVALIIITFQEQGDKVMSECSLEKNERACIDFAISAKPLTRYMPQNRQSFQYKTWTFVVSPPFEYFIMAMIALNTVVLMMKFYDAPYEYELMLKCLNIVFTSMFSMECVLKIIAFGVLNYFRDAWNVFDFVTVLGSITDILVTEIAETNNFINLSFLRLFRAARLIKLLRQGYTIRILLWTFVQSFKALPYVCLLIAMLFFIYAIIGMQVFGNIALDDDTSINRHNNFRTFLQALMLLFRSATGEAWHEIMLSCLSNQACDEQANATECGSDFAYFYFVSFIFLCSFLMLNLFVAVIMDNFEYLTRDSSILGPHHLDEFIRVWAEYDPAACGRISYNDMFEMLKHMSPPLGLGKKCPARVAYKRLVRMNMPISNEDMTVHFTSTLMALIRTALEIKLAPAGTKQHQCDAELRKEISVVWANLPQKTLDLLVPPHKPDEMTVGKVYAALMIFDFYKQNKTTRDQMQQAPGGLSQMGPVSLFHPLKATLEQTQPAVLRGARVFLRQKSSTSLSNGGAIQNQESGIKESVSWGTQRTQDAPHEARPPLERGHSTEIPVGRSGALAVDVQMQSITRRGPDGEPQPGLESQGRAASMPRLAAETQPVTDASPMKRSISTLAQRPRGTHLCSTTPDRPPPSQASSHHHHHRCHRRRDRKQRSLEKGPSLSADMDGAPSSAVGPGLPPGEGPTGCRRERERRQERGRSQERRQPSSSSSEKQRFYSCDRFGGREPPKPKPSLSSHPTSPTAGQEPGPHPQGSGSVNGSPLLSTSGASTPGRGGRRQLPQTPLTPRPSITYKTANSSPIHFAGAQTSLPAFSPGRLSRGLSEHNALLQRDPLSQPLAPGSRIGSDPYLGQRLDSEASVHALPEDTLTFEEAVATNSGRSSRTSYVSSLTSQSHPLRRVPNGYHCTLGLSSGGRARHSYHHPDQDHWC
# Hit rate of the full screen: of about 290,000 compounds, about 570 (0.2%) were called active. This list was built around the results that the source calls inconclusive (neither active nor inactive); the mix of calls is not that of the screen. No stated cut-off is given here; in the data, active means inhibition mostly above about 51% (no sharp cut-off); inconclusive means no clear call, values can overlap the other calls; inactive means mostly below about 53%.
# Target: Voltage-dependent N-type calcium channel subunit alpha-1B (Homo sapiens) (UniProt Q00975)
# Assay: disruptors of CaV2.2 binding to Mint1 – biochemical, HTRF (AID 2073)
# Settings: HTRF protein-protein interaction, Mint1-CaV2.2; at 20 µM; stronger effect = higher value
row,Compound,inhibition
1,O=C(OCc1cc(=O)n2c(n1)sc1ccccc12)c1cccc(O)c1,inactive: 19.1%
2,N#Cc1c(N)c(C(=O)c2ccccc2)n2c1CCCC2,inconclusive: 51.6%
3,CC(=O)c1cc2c(s1)-c1cc(F)ccc1OC2,inconclusive: 65.8%
4,COCc1ccc(C(=O)N2CCCC(N(C)Cc3ccccc3)C2)s1 (stereo not drawn),inconclusive: 81%
5,CCOC(=O)/C=c1\s/c(=C\c2ccc3cc(OC)ccc3c2)c(=O)n1CC(=O)NCc1ccc2c(c1)OCO2,inconclusive: 70%
6,CCOC(=O)C1CCCCN1Cc1cccc(C(F)(F)F)c1 (stereo not drawn),inconclusive: 54.6%
7,O=C(COC(=O)Cn1cnc2ccccc21)NCCc1ccc(Cl)cc1,inconclusive: 53.6%
8,Cc1ccc(Cn2ncc3c(N4CCN(C)CC4)ncnc32)cc1,inconclusive: 56.8%
9,N=C1C(c2nc3ccccc3s2)=C(O)CN1NC(=O)c1ccccc1[N+](=O)[O-],inactive: 14.9%
10,Cc1ccccc1NC1=C(Cl)C(=O)OC1NC(=O)c1ccccc1 (stereo not drawn),inactive: -0.5%
11,CCCC(=O)C1=C(O)C(C(=O)OC)C(C)(C)CC1=Nc1ccncc1 (stereo not drawn),inconclusive: 78.4%
12,COc1ccc(OC)c(S(=O)(=O)N2CCC(C(=O)Nc3cccc(C(F)(F)F)c3)CC2)c1,inconclusive: 54.2%
13,O=C(Cn1nnc(-c2ccccc2F)n1)Nc1ccc2c(c1)OCO2,inconclusive: 50.3%
14,CC(=O)c1cccc(NC(=O)NC(C)c2ccc3c(c2)OCO3)c1 (stereo not drawn),inconclusive: 67.1%
15,COc1cccc(NC(=O)COC(=O)Cc2ccccc2[N+](=O)[O-])c1,inconclusive: 68.7%
16,CC(=O)Nc1cccc(Nc2nc(-c3ccccc3F)nc3ccccc23)c1,inconclusive: 58.1%
17,CC(C)CNc1nc(Oc2ccc(=O)[nH]n2)nc(N2CCOCC2)n1,inactive: -12.9%
18,Cn1c(=O)c(C(=O)COc2ccc(C#N)cc2)c(N)n(Cc2ccccc2)c1=O,inconclusive: 57.6%
19,CCOC(=O)N1CCN(S(=O)(=O)c2ccc3[nH]cc(C(=O)O)c(=O)c3c2)CC1,inconclusive: 58.3%
20,CCc1ccc(NC(=O)Cc2cn(C)c3ccccc23)cc1,inconclusive: 53.2%
21,CCS(=O)(=O)N1CCCC(C(=O)N2CCc3ccccc3C2)C1 (stereo not drawn),inactive: 0%
22,Cc1cccc(Cn2c(O)c(N=NC(=S)Nc3ccccc3F)c3ccccc32)c1,inconclusive: 68.6%

row,Compound,inhibition
1,COc1cccc(C2N(c3ccccc3)CCN2c2ccccc2)c1OC,inconclusive: 54.5%
2,O=C(O)CCN1C(=O)C2CCCCC2C1=O (stereo not drawn),inconclusive: 69.9%
3,O=C(N/N=C/c1sc(N2CCOCC2)nc1-c1ccccc1)c1cccc(S(=O)(=O)N2CCOCC2)c1,inactive: 21.2%
4,COC(=O)N/N=C/c1cc(N=Nc2ccccc2)ccc1O,inactive: 23.6%
5,COc1ccc(NC(=O)c2c3c(nc4ccccc24)CCC3)cc1S(=O)(=O)N1CCOCC1,inactive: 59.4%
6,CC(=O)Cn1cnc2c(sc3nc(C)cc(C)c32)c1=O,inactive: -5.8%
7,COc1cccc(NC(=O)c2ccc(-c3ccccc3[N+](=O)[O-])o2)c1,inactive: 52.1%
8,CCOc1ccc(-c2cc(C(=O)NCCCn3ccnc3)c3cc(Br)ccc3n2)cc1,inconclusive: 50.7%
9,CC(C)Cc1cc(C(=O)N2CCC(N3CCC(C(=O)N4CCOCC4)CC3)CC2)n[nH]1,inconclusive: 54.7%
10,Cc1ccc2nc(-c3ccccc3O)c(Nc3ccc4c(c3)OCCO4)n2c1,inconclusive: 52.3%
11,N#CCCN1CCCN(CCC#N)CCN(CCC#N)CCCN(CCC#N)CC1,inactive: -13.6%
12,CC(=O)c1ccc2c(c1)C1C=CCC1C(C(=O)O)N2 (stereo not drawn),inconclusive: 72.7%
13,CC1CC(C)(C)NC(=S)N1CCC(=O)N1CCc2ccccc21 (stereo not drawn),inconclusive: 78.7%
14,O=c1[nH]c2ccccc2n2c(-c3ccccc3)nnc12,inconclusive: 93.8%
15,NC(=O)CCC(NS(=O)(=O)c1ccc(Cl)cc1)C(=O)NCc1ccccc1 (stereo not drawn),inactive: -16.2%
16,Cc1ccc2c(c1)C(=C(C#N)C#N)C(=O)N2CCN1CCCCC1,inconclusive: 65.6%
17,CC(NC(=O)COC(=O)CCc1nc2ccccc2c(=O)[nH]1)c1ccccc1 (stereo not drawn),inconclusive: 52.8%
18,C/C(=N/N=C1/NC(=O)CC(C(=O)Nc2ccccc2)S1)c1cccs1 (stereo not drawn),inconclusive: 53.6%
19,CCOc1ccc(-n2c(=O)[nH]cc(C(=O)N3CCCc4ccccc43)c2=O)cc1,inconclusive: 59.4%
20,CCCC(=O)NC(Nc1cccc(C(F)(F)F)c1)C(Cl)(Cl)Cl (stereo not drawn),inconclusive: 85.7%
21,O=C(COc1ccc(Br)cc1)NCCNC(=O)c1ccncc1,inconclusive: 57.8%
22,C/C(=N/N=C(\C)c1ccccc1O)c1ccccc1O,inconclusive: 80.7%

row,Compound,inhibition
1,COC(=O)CSC1=C(C#N)C(c2ccccc2F)CC(=O)N1 (stereo not drawn),inconclusive: 64.1%
2,Cc1ccc(OCc2cc(C(=O)N(C)CC3CCOCC3)no2)cc1C,inconclusive: 85.4%
3,COc1ccc(OC)c(C2CC(=O)N3CN(c4cccc(Cl)c4C)CSC3=C2C#N)c1 (stereo not drawn),inconclusive: 96.7%
4,Nc1ccc(NC(=O)c2cccc(C(=O)Nc3ccc(N)cc3Cl)c2)c(Cl)c1,inconclusive: 50%
5,COc1cccc(-c2nc(NCc3cccnc3)c3ccccc3n2)c1O,inactive: 14.2%
6,Cc1nn2c(-c3ccc(S(=O)(=O)N4CCN(CCO)CC4)o3)nnc2c2ccccc12,inconclusive: 60.7%
7,COc1ccccc1CNC(=O)C1CCC(=O)N(CCCN2CCCC2=O)C1 (stereo not drawn),inconclusive: 68.5%
8,O=[N+]([O-])c1ccc(O)c(C=Nc2ccc3nc(-c4ccccc4)[nH]c3c2)c1,inconclusive: 56.8%
9,COc1ccc(NC(=O)CCN2CCC(C)CC2)cc1,inconclusive: 50%
10,CCOC(=O)CSc1nc2ccsc2c(=O)n1C1CCN(C(=O)OCC)CC1,inconclusive: 62.7%
11,COc1ccc(Br)cc1CNC(=O)c1ccc2c(c1)N(C)CCS2,inconclusive: 52.4%
12,CCCSc1nc(N2CCOCC2)c2c(c1C#N)CC(C)(C)SC2,inactive: 0.4%
13,COCCCNc1nc2c(-c3cccc(C)c3)nnn2c2ccccc12,inconclusive: 64%
14,COc1cc(CNc2ccc3[nH]c(=O)[nH]c3c2)cc(Cl)c1OCC(=O)NC(C)(C)C,active: 51.8%
15,O=[N+]([O-])c1ccccc1/C=N/N1CCN(c2ccccn2)CC1,inconclusive: 75.4%
16,CCC(C)(C(=O)NC1CCCCC1)N(C(=O)c1cnccn1)c1c(C)n(C)n(-c2ccccc2)c1=O (stereo not drawn),inconclusive: 87.6%
17,C=CCN1C(=O)/C(=C\c2ccc(OC(=O)c3ccco3)c(OC)c2)SC1=S,inconclusive: 69.9%
18,COc1cc(/C=c2\s/c(=C(/C#N)C(=O)N3CCCC3)n(-c3ccccc3)c2=O)ccc1O,inconclusive: 60.2%
19,CN(C)c1ccc(/C=C/c2cc[n+]([O-])cc2)cc1,inconclusive: 97.8%
20,CS(=O)(=O)N(CC(=O)N1CCCC1)Cc1ccc(Cl)c(Cl)c1,inactive: 9.7%
21,CCOC(=O)CSc1nnc(-c2cccnc2)n1C,inactive: 0.8%
22,O=C(Nc1ccc2c(c1)OCCO2)c1cccnc1,inconclusive: 58%

row,Compound,inhibition
1,NC(=S)n1[nH]c(-c2ccc([N+](=O)[O-])cc2)c(N=Nc2ccccc2[N+](=O)[O-])c1=O,inactive: 69.4%
2,Cc1ccc(/C=C/C(=O)NCC2COc3ccccc3O2)o1 (stereo not drawn),active: 72.5%
3,Cc1nc(-c2ccc(Cl)cc2)sc1C1(C)CC(c2cccc([N+](=O)[O-])c2)=NO1 (stereo not drawn),inconclusive: 63.6%
4,CCOC(=O)c1ccc(N=c2scc(C)n2CC)cc1,inactive: 3.7%
5,O=C(Nc1nc2ccccc2s1)c1cccc(S(=O)(=O)N2CCc3ccccc32)c1,inactive: 8.8%
6,COc1ccc(OC)c(Nc2nc(=O)c3cccnc3s2)c1,active: 81.8%
7,COc1ccc(/C=C(/CC(=O)Nc2ccccc2)c2nc3ccccc3s2)cc1,inactive: 13%
8,N#C/C(=C\c1cccn1-c1ccccc1)C(=O)NC1CCCCC1,inconclusive: 54.5%
9,CC1CCN(C(=O)c2ccc3c(c2NCCO)C(=O)c2ccccc2C3=O)CC1,inactive: -7.6%
10,CN1CCN(c2c(F)cc3c(=O)c(C(=O)O)cn4c3c2OCN4C)CC1,inactive: 33.2%
11,CN(C)C(=O)c1ccc(NC(=O)CSc2nc3ccccc3[nH]2)cc1,inactive: -1.1%
12,COc1ccccc1NC(=O)c1sc2nc(-c3ccco3)ccc2c1N,inconclusive: 73.4%
13,COc1ccc(CCNC(=O)c2nnc(CS(=O)(=O)c3ccccc3)o2)cc1OC,inconclusive: 80.4%
14,Cn1nc(-c2ccccc2)c(COC(=O)c2cccc(Cl)c2)c1S(=O)(=O)c1ccccc1,inconclusive: 66%
15,Cc1cccnc1NC(=S)NCc1ccco1,inconclusive: 97.9%
16,COC(=O)c1cc(S(=O)(=O)N(C)C2CCCCC2)cn1C,inconclusive: 51.4%
17,Fc1cccc(Cl)c1CNc1ccc(N2CCCC2)cc1,active: 54%
18,CCOc1ccc(-c2nn(-c3ccccc3)cc2/C=C(\C#N)S(=O)(=O)c2ccccc2)cc1C,inconclusive: 62.2%
19,CN(/C(=N\S(=O)(=O)c1ccccc1)c1ccccc1)c1ccc(O)cc1,inconclusive: 63.1%
20,COc1ccccc1-n1c(C)cc(SC)c(C(C)=O)c1=S,inconclusive: 76.9%
21,COc1ccc(-n2nc(C(=O)NCC(=O)Nc3cccc(Cl)c3)c3ccccc3c2=O)cc1,inconclusive: 59.3%
22,CSc1nnc(Cn2c(=O)sc3ccccc32)n1CCc1ccccc1,inconclusive: 61%

# 3 successive entries out of the list so far, quoted:
row,Compound,inhibition
7,O=C(COC(=O)Cn1cnc2ccccc21)NCCc1ccc(Cl)cc1,inconclusive: 53.6%
8,Cc1ccc(Cn2ncc3c(N4CCN(C)CC4)ncnc32)cc1,inconclusive: 56.8%
9,N=C1C(c2nc3ccccc3s2)=C(O)CN1NC(=O)c1ccccc1[N+](=O)[O-],inactive: 14.9%

# Given with tabs: entries from further up
row	Compound	inhibition
12	COc1ccccc1NC(=O)c1sc2nc(-c3ccco3)ccc2c1N	inconclusive: 73.4%
13	COc1ccc(CCNC(=O)c2nnc(CS(=O)(=O)c3ccccc3)o2)cc1OC	inconclusive: 80.4%
